Assay results published in patent publication US20250213645A1 (L-BASE CO., LTD., priority 2021, published 2025).

Assay: general procedure: solution-phase peptide synthesis; HATU / N,N-diisopropylethylamine

“2-Naphthyl-AlaGlnThr(OBn)GlyThr(OBn)GlyLys(Cbz)Thr(OBn)OBn” showed a step yield (coupling step) of 64%.
For 2-PhPh-AQTGTGKT, the “final purity (method not given)” value (late stage modification step) was 95% or more and the step yield (late stage modification step) was 31%.
For “2-PhPh-AlaGlnThr(OBn)GlyThr(OBn)GlyLys(Cbz)Thr(OBn)OBn”, the step yield (coupling step) was 49%.
With 3-PhPh-AQTGTGKT the “final purity (method not given)” value (late stage modification step) was 90% or more and the step yield (late stage modification step) was 5%.
Substance “3-PhPh-AlaGlnThr(OBn)GlyThr(OBn)GlyLys(Cbz)Thr(OBn)OBn” has a step yield (coupling step) of 38%.
In the case of 4-MeOPh-AQTGTGKT, the “final purity (method not given)” value (late stage modification step) is reported as 89% and the step yield (late stage modification step) is reported as 10%.
For “4-OMePh-AlaGlnThr(OBn)GlyThr(OBn)GlyLys(Cbz)Thr(OBn)OBn”, the step yield (coupling step) was 50%.
For Ac-AQTGTGKT, the step yield (late stage modification step) was 37%.
Substance “Ac-AlaGlnThr(OBn)GlyThr(OBn)GlyLys(Cbz)Thr(OBn)OBn” has a step yield (coupling step) of 33%.
Substance “BocGlnThr(OBn)GlyThr(OBn)GlyLys(Cbz)Thr(OBn) OBn” has a step yield (coupling step) of 89% overall yield.
Work on “BocThr(OBn)GlyThr(OBn)GlyLys(Cbz)Thr (OBn)OBn” yielded a step yield (coupling step) greater than 100%.
“GlnThr(OBn)GlyThr(OBn)GlyLys(Cbz) Thr(OBn)OBn” gave a step yield (late stage modification step) of 96%.
With Ph-AQTGTGKT the “final purity (method not given)” value (late stage modification step) was 90% or more and the step yield (late stage modification step) was 33%.
For “Ph-AlaGlnThr(OBn)GlyThr(OBn)GlyLys(Cbz)Thr(OBn)OBn”, the step yield (coupling step) was 58%.
For naphthyl-AQTGTGKT, the “final purity (method not given)” value (late stage modification step) was 85% and the step yield (late stage modification step) was 33%.
